At least one compound was matched to its structure with a doubt left.
Target: T1, Cathepsin B (Homo sapiens, UniProt P07858)
T1 construct: purchased Calbiochem
Experiment: Study of Cathepsin B inhibition (fluorescence, Z-arg-arg-AMC)
Type: biochemical
Details: substrate Z-arg-arg-AMC 20 μM, enzyme 16 ng/ml, 1 hour at ambient temperature
Procedure: The products to be tested (10 mM) are diluted to […] in DMSO and distributed into Nunc polystyrene 96 well plates at a rate of 2 μl per well. Column 12 of the plate is reserved for the controls and therefore receives […] of DMSO (without products) per well. The plates are stored at −80° C. and thawed on the day of the experiment.
The products are diluted to 50 μM by adding 38 μl of reaction buffer: sodium acetate 100 mM, EDTA 5 mM, DTT […] pH 5.5. The addition as well as all the operations by pipette are carried out with a CybiWell 96 tip pipette. After mixing the solutions, each product is transferred into 2 wells (duplicates) of a Greiner black 384 well plate at a rate of 10 μl per well. Two 96-well plates can therefore be tested in a 384-well plate.
A solution of substrate at 50 μM, Z-Val-arg-AMC (Calbiochem), is prepared in the reaction buffer. The substrate, is then distributed into all the wells of the 384-well plate (20 μl per well).
A solution of Cathepsin K at 12.5 ng/ml is prepared in the reaction buffer and distributed into all the wells of the 384-well plate (20 μl per well) except for the 16 wells serving as 100% inhibition controls (column 23 and 24, lines I to P) which receive 20 μl of enzyme-free buffer.
The plates are then incubated 2H at ambient temperature, then read on Fluoroskan (Labsystems): excitation 390 nm; emission 460 nm […]

Row | SMILES | IC50
1 | CC(C)(C)Oc1ccc(C[C@H](NC(=O)[C@@H]2CCCN3C(=O)CC[C@H](NC(=O)Nc4ccc(Oc5ccccc5)cc4)C(=O)N23)C(=O)C=[N+]=[N-])cc1 [Example 54, 9-[(9S)-[[(4-phenoxyphenyl)amino]carbonyl]amino]-N-[(2S)-4-diazo-1-[4-[(1,1-dimethyl)ethoxy]phenyl]-3-oxo-2-butyl]-6H-(1S)-pyridazino[1,2-a][1,2]diazepine-1-carboxamide] | 20 µM
2 | CC(C)C[C@H](NC(=O)[C@@H]1CCCN2C(=O)CC[C@H](NS(=O)(=O)c3ccc(C(F)(F)F)cc3)C(=O)N12)C(=O)C=[N+]=[N-] [Example 347, 9-[(9S)-[[4-(trifluoromethyl)phenyl]sulphonyl]amino]-N-((3S)-1-diazo-5-methyl-2-oxo-3-hexyl)-octahydro-6,10-dioxo-6H-(1S)-pyridazino[1,2-a][1,2]diazepine-1-carboxamide] | 20 µM
